{
  "source": "patent US4916217A",
  "about": "“Phosphorus containing derivatives of epipodophyllotoxin” (priority 1987, dated 1990)",
  "test_system": "B16-F10 murine melanoma",
  "test": "in vitro cytotoxicity assay, B16-F10",
  "assay_type": "cell-based",
  "conditions": "50% inhibition of cell growth; etoposide values (in parentheses) from the same run",
  "description": "The test data involves a cytotoxicity assay versus various murine and human tumors, and in vivo evaluation against P-388 leukemia and B16 melanoma in mice.\nThe in vitro cytotoxicity assay involved growing various mammalian tumor cells, including human tumor cells, on microtitre plates employing established tissue culture methods. The concentration of each compound required to inhibit cell growth by 50% (IC50) was then determined by a four-fold serial dilution technique. The validity of the method has been supported by a report published in the \"Proceedings of the American Association for Cancer Research\", Vol. 25, 328, p. 1891 (1984). Tumor cells of the following types were employed for each compound tested: B16-F10 murine melanoma; Moser human colon; M109 murine lung; and three human colon tumor cell lines namely HCT-116, HCT-VM, and HCT-VP, the latter two being resistant to teniposide (VM) and etoposide (VP). A wide range of IC50 values was observed, and quantitative comparisons amongst test compounds or against the etoposide control values were not possible.",
  "note": "At least one read-out could not be matched to a standard name with certainty.",
  "data": [
    {"smiles": "COc1cc([C@@H]2c3cc4c(cc3[C@@H](O[C@@H]3O[C@@H]5CO[C@@H](C)O[C@H]5[C@H](O)[C@H]3O)[C@H]3COC(=O)[C@H]23)OCO4)cc(OC)c1O", "note": "[Etoposide, reference compound]", "values": [
      {"measurement": "IC50 B16-F10", "value": 2.7, "unit": "µg/mL"}
    ]}
  ]
}
